Assay results as given in PubChem BioAssay AID485314 (National Center for Advancing Translational Sciences (NCATS), 2010).
Screen size: about 340,000 compounds; about 4,500 (1.3%) were called active. Inconclusive means that the source gave no clear call. Such entries were picked first, then a sample of the others. Calls come from the whole dose curve; as a rule, active = well fitted inhibition curve with a large enough effect; inconclusive = small, poorly fitted or top-dose-only effect, or another doubt; inactive = no such curve, though single readings can be large or run the other way. Where the call is inconclusive, the potency comes from a doubtful curve fit.

Biological target: DNA polymerase beta (Homo sapiens) (UniProt P06746)
Assay: qHTS Assay for Inhibitors of DNA Polymerase Beta
Settings: Pol beta primer extension/strand displacement, fluorescence kinetic; activity change, negative = inhibition: at 114 µM (top of the series)
Method in brief: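 Kinetic readout of DNA synthesis with strand displacement by Pol beta. Compound and 10 nM enzyme sit 15 min at room temperature; 50 nM substrate starts the reaction, read immediately and at 10 min.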
% is set by controls: 0 for no effect and ±100 for the full control effect; potency is the fitted concentration of half-maximal effect.

Activity change, negative = inhibition, inactive:
Cc1oc(C(C)(C)C)cc1C(=O)N1CCN(C(c2ccccc2)c2ccccc2)CC1 -15.5%, CCc1ccc(NC(=O)C2CCN(S(=O)(=O)c3ccc4[nH]c5c(c4c3)CCCCC5)CC2)cc1 24.4%, O=C(COc1ccccc1/C=C1/NC(=O)NC1=O)Nc1ccccc1 0.975%, COc1ccc(CCNC(=O)CSc2nc3[nH]ncc3c(=O)n2-c2ccc(Br)cc2)cc1OC 4.85%, CCOc1cc(-c2nc3c(c(CC)nn3-c3ccccc3)c3cc(OC)c(OC)cc23)ccc1O -19.6%

Potency, active:
COc1ccccc1NS(=O)(=O)c1ccc(C(=O)OCC(=O)NCc2ccco2)cc1 15.8 µM, O=C(CCN1CCN(c2ccccc2)CC1)N/N=C/c1ccc(O)c(O)c1O 2.82 µM, CC(C)C(NC(=O)OCc1ccccc1)C(=O)OCC(=O)NCc1ccco1 (centres undefined) 20 µM

Potency, inconclusive:
O=c1c2ccccc2nc2ccc(NCc3ccco3)nn12 11.2 µM [inhibitor, full curve], CCOC(=O)c1c(S(=O)(=O)N2CCCC(C(=O)N3CCN(c4cccc(C)c4C)CC3)C2)c(C)n(C)c1C (centres undefined) 89.1 µM [inhibitor, single point], Cc1ccccc1C(=O)N1CC(=O)Nc2ccc(F)cc2C1c1ccc(F)cc1 (centres undefined) 0.158 µM [inhibitor, full curve], Cc1cccnc1Nc1nc(-c2ccc(O)cc2O)cs1 50.1 µM [inhibitor, partial curve], CC(=O)Nc1ccc(C(=O)OCC(=O)Nc2ccc([N+](=O)[O-])cc2C(F)(F)F)cc1 0.708 µM [inhibitor, full curve, poor fit], Cc1cccc(NC(=O)CSc2nc(-c3ccco3)nc3cc(=O)[nH]n23)c1 22.4 µM [inhibitor, partial curve, poor fit], O=C(O)COc1ccccc1-c1nc(-c2ccccc2)c(-c2ccccc2)[nH]1 5.01 µM [inhibitor, full curve, poor fit], Cc1ccc(NC(=O)C(OC(=O)c2cnc(C)cn2)c2ccccc2)c([N+](=O)[O-])c1 (centres undefined) 70.8 µM [inhibitor, single point], N#Cc1c(NC(=O)c2cnccn2)sc2c1CCCC2 25.1 µM [inhibitor, full curve, poor fit], CC(NC(=O)C12CC3CC(C1)CC(n1cncn1)(C3)C2)C12CC3CC(CC(C3)C1)C2 (centres undefined) 39.8 µM [inhibitor, single point], CCOCCOC(=O)C1=C(C)Nc2ccc(C)cc2S1 63.1 µM [inhibitor, partial curve, poor fit]
